According to paper PMC12201645:
Results are given in words; binding and its absence hold for the method and conditions named. In cells and extracts the contact can be indirect.

Molecular target: T1, PIN2-mCherry (Arabidopsis thaliana) (UniProt Q9LU77)
T1 sequence: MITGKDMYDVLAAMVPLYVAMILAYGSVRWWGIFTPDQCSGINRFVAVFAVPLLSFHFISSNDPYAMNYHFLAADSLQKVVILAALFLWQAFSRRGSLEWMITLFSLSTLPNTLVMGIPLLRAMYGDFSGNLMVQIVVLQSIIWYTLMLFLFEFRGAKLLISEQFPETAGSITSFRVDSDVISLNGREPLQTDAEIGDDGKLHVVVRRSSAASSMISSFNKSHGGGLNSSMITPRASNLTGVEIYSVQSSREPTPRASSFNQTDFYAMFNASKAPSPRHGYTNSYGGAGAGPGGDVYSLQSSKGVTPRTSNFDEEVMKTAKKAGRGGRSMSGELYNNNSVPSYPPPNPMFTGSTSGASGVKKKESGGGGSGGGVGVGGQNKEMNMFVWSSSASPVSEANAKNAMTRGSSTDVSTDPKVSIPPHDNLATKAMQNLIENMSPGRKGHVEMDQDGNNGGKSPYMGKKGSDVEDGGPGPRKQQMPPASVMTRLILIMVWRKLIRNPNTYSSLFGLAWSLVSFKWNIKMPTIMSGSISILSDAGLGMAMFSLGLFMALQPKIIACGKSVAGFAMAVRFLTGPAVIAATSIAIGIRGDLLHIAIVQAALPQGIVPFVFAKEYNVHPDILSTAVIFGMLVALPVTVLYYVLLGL
Assay: FRET or BRET; FLIM-FRET (time correlated single photon counting, PicoQuant kit on Olympus FV3000 CLSM) in living transgenic A. thaliana seedlings; donor EGFP/GFP6/GFP, acceptor mCherry on PIN2; tau average intensity; E = 1 - tauDA/tauD

binding: no binding
Sequence: BRASSINOSTEROID …1 fused to GFP (BRI1-GFP) (from UniProt O22476 24-1196) (receptor)
